PubChem BioAssay AID1259254 – NCATS | 2017
The deposit covers about 59,000 reagents; shown is an unselected part. About 1,550 of all reagents (2.6%) count as active. 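G2 share is only a proxy for re-replication; each gene was hit by three separate siRNAs, and active genes were retested.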 Reagents against one gene are numbered here. Further read-outs or replicates are left out here. The record does not give: the amount of reagent.

Screen: 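Gene knock-downs that lead to re-replication, shown by excess G2 DNA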 (primary screen)
System: human HCT116 colorectal cancer cells
Reagents: single siRNA against human genes
Duration: 3 days
Measurement: 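Nuclei stained with Hoechst and imaged; cell-cycle phase assigned by DNA content; G2 share scaled per plate, non-targeting siRNA 0%, GMNN siRNA 100%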
Reading the numbers: G2 robust z-score: higher = more G2 cells, more excess DNA replication
Rule for the call: 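An siRNA counts as active if its G2 robust z-score lies at least 5 MADs above the screen median; here such calls match roughly 38% of GMNN control or more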

G2 robust z-score, by target gene and reagent
BMS1P21: #1 -0.61 inactive; #2 -0.465 inactive; #3 6.4 active
EEPD1: #1 3.21 inactive; #2 -0.386 inactive; #3 -1.06 inactive
SNAP23: #1 0.753 inactive; #2 -0.542 inactive; #3 1.49 inactive
MIR205HG: #1 2.17 inactive; #2 -0.647 inactive; #3 0.0454 inactive
DDX25: #1 0.792 inactive; #2 -0.294 inactive; #3 2.83 inactive
NSUN5: #1 -0.0437 inactive; #2 -0.842 inactive; #3 -0.508 inactive
TUBAL3: #1 0.244 inactive; #2 -0.328 inactive; #3 0.483 inactive
COG8: #1 0.683 inactive; #2 -0.727 inactive; #3 -0.506 inactive
NOP56: #1 2.28 inactive; #2 1.78 inactive; #3 1.91 inactive
SPTSSA: #1 2.65 inactive; #2 -0.73 inactive; #3 0.828 inactive
SLC37A1: #1 1.79 inactive; #2 -0.474 inactive; #3 0.604 inactive
LRIT3: #1 2.61 inactive; #2 0.705 inactive; #3 -0.206 inactive
BBC3: #1 5.08 active; #2 0.806 inactive; #3 9.29 active
CDCP1: #1 -0.551 inactive; #2 -0.218 inactive; #3 3.13 inactive
PRM3: #1 -0.529 inactive; #2 0.214 inactive; #3 0.151 inactive
HSPH1: #1 -0.43 inactive; #2 -1.16 inactive; #3 0.193 inactive

7 entries already listed, ordered by “G2 robust z-score”, high to low.
target gene	reagent no.	G2 robust z-score	Outcome
BBC3	3	9.29	active
BBC3	1	5.08	active
LRIT3	1	2.61	inactive
BBC3	2	0.806	inactive
LRIT3	2	0.705	inactive
SLC37A1	3	0.604	inactive
LRIT3	3	-0.206	inactive
